Data: article PMC4758730
These are yes or no findings as the source states them, for the method shown. In cells and extracts the contact can be indirect. These calls come from enrichment with a bait or labelling near it, and not all partners need be listed. For some assays here: A no says only that the protein was not detected with the bait.

T1: Din1-FTP (S. pombe) (UniProt O13836)
T1 sequence: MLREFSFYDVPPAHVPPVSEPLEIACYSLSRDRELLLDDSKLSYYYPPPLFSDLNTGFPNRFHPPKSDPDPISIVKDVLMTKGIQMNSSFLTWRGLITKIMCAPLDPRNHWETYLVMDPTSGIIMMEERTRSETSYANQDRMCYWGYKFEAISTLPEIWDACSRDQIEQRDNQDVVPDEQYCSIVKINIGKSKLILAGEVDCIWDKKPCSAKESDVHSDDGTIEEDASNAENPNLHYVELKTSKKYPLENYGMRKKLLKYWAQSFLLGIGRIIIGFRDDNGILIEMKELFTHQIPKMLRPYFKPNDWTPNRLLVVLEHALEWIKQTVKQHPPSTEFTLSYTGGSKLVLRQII

T2: Dhp1-FTP (S. pombe) (UniProt P40848)
T2 sequence: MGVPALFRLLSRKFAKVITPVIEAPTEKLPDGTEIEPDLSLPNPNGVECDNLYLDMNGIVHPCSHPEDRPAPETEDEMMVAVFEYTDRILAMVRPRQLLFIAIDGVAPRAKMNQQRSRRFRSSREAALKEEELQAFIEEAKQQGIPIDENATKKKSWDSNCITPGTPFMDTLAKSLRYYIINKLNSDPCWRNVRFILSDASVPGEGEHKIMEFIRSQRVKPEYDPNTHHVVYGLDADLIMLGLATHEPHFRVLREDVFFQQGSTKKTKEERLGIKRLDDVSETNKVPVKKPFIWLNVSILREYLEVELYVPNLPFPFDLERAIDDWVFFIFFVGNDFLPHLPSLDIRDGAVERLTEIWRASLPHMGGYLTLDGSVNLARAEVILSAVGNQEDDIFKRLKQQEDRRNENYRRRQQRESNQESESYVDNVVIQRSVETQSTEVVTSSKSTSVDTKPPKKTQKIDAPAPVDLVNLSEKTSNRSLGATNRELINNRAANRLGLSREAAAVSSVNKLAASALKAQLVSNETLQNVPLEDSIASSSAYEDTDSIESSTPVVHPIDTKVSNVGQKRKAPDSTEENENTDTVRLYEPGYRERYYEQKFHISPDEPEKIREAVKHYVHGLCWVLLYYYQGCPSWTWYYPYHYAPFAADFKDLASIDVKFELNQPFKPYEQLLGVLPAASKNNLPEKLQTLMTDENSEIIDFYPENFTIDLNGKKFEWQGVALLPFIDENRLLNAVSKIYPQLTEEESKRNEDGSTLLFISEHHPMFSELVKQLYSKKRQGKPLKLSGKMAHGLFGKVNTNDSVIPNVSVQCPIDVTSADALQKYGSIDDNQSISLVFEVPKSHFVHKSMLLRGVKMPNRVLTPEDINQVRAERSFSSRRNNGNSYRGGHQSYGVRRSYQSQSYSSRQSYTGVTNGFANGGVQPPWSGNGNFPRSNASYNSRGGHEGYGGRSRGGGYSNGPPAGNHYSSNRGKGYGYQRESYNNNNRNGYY


Legend:
Din1-FTP (S. pombe) = biological target: T1, Din1-FTP (S. pombe); assay: affinity purification with mass spectrometry; two-step affinity purification of FTP-tagged bait (Flag-TEV-protein A) from S. pombe, in the presence of Benzonase; co-purified proteins identified by LC-MS/MS; untagged strain as control
Dhp1-FTP (S. pombe) = biological target: T2, Dhp1-FTP (S. pombe); assay: as above

Row | binding (Din1-FTP (S. pombe)) | binding (Dhp1-FTP (S. pombe)) | Binder
1 | no binding | binds | Clr4 methyltransferase complex (ClrC) subunit Rik1 (protein, UniProt Q10426 1-1040) MALCVHSFWATAVDTATSCHFISSENCLVLLQALKINIYLCSEVHGLQFFTSIPLFSTVKHIRPYRPPGLDRDYLFVVLNDDTYFSIYWDEDYQKVIVDHPPVRYRVTFPWNRNAKSYCLVDLRMRAIFLSIDEISMICIRILSAEERLKTGRSIDSGFPFSFPVHLIYDMCILNDSSTPTLVVLHSDGLDCYVTAFLLDLSSKSLGKGIRLFERVKPSMIMPFGKRGLLVFESLFIHCMYRGNFVTINGPCTTYMHWTPLKGQKMHYIVCDTNGYLFGVYSSILGKNKWSLVMERLPIPPFDFITSLNSIHEGLLFIGSKNSESKLINLSTLKDVDSIPNLGPIHDLLVLKNDIEKSFLVCAGTPRNASLIYFQHALKLDILGQTKISGILRAMVLPSYPEHKLFLGFPSETVAFNIKEDFQLELDPSLSTKERTIALSGTNGEFVQVTSTFLCIYDSAKRSRLVYIEKITNAACYQEYSAIVINGTALAIFKKDTEVARKVFESEISCLDFSAQFQIGVGFWSKQVMILTFSDNSSISCAFQTNVPSLPRNIILEGVGVDRNLLLVSSGSGEFKSYVLFKNNLVFSETKHFGTTPVSFRRFTMNIGTYIICNNDCPHMVYGFNGALCYMPLSMPQSYDVCQFRDNSGKDFLISVSLGGLKFLQLNPLPELTPRKVLLEHVPLQAIIFQNKLLLRTLENRYEDYESYKENYHLELVDSYDDNSFRVFSFTENERCEKVLKINESSLLVGTSIIEQDKLVPVNGRLILLEFEKELQSLKVVSSMVLSAAVIDLGVYNDRYIVAFGQQVAIVKLTEERLMIDSRISLGSIVLQLIVEGNEIAIADSIGRFTIMYFDGQKFIVVARYLFGENIVKAALYEGTVYIIATNSGLLKLLRYNKDAKNFNDRFICESVYHLHDKVSKFQNFPITNTNSFLEPKMLFATEIGAIGSIVSLKDKELELEELTRKIRKLKFSYLSSMDYESIEADLISPVPFIDGDLVIDVKRWASSELFRLCRSVEHRESLNSYQKVQALLEEIQSLC
2 | – | binds | Din1 (protein, UniProt O13836 1-352) MLREFSFYDVPPAHVPPVSEPLEIACYSLSRDRELLLDDSKLSYYYPPPLFSDLNTGFPNRFHPPKSDPDPISIVKDVLMTKGIQMNSSFLTWRGLITKIMCAPLDPRNHWETYLVMDPTSGIIMMEERTRSETSYANQDRMCYWGYKFEAISTLPEIWDACSRDQIEQRDNQDVVPDEQYCSIVKINIGKSKLILAGEVDCIWDKKPCSAKESDVHSDDGTIEEDASNAENPNLHYVELKTSKKYPLENYGMRKKLLKYWAQSFLLGIGRIIIGFRDDNGILIEMKELFTHQIPKMLRPYFKPNDWTPNRLLVVLEHALEWIKQTVKQHPPSTEFTLSYTGGSKLVLRQII
3 | no binding | binds | exosome subunit Rrp6 (enzyme, UniProt Q10146 1-777) MDESELFKGLMNSTAYCSELAKVDIPFYKSIDTEFNENIKSVSSRFMRLIELLLSKVDRSRAEDIVDVEDIDNRWAEVSDTLDILFEKADYSIDKAQGLLKKPAIETHASTSDVANKKPKKEKLPYKVIHAAHLTKPQLRFRVQPNNSREFVWSWKLTEKPHSLVPLEKIIAQVKLDPSLKNSLPHPYEPEIQNSVYPPWVSEMSNPIDTGSVDETEPIWVSTESQLSDMLKELQNSKEIAVDLEHHDYRSFRGFVCLMQISNREKDWIVDTLELREELEALNVVFTNPNIIKVFHGATMDIIWLQRDFGLYVVNLFDTYYATKVLGFEGHGLAFLLQKYCDYDADKRYQMADWRIRPLPREMLKYAQSDTHYLLYIWDHLRNELISKSAERKENLMQSVFNSSKQISLRKYELEPYDPIYGLGTDGWRNVLTKFGSSKIIGREALMIYRALHDWRDSVARKEDESVRYVLPNRLLIAIAASKPVEAADVFSISKQLTPIARMYVEDIVKVVQEAEKLYNEQVDREKSQFKEVEKQNQPLAVFSESNTLGDYKVDSSVFEISKQNRSKLKTLLANGSAFWIEGQSQDDLRKARKERLFIVNQNIPFSLTLPCTQGHVESELNVKQSTVTEAANPSLNGEKKQEPIVIRDLGLNKQKRDSSKLNHKEPSNPIEERNEDIEPSEASTSVSKKRKQKKKKKNSGKLTIEAEHVSNDSPIINEAPFDYKNQKNFIADLDSDVGKNKFGKRGFNPLNKVSLPKRNTRELKKRKVSDGKSTSY
